From the supplement of paper PMC8728848
Some of the results follow.

What was measured:
Assay in all cases: glycan array binding signal (z-score within array); higher = stronger binding
Conditions in all cases: glycan notation: IUPAC condensed, linker removed
GlcNAc(b1-3)Gal(b1-4)Glc = target: GlcNAc(b1-3)Gal(b1-4)Glc
Outline: (§1)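 The Consortium for Functional Glycomics database supplied 3228 glycan arrays, of which those lacking an available protein sequence were dropped. The binding signal, a within-array Z-score, was averaged across arrays of the same protein sequence and across linkers. Negative scores can be read as non-binding.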

[1] = target: GlcNAc(b1-3)Gal(b1-4)GlcNAc
Outline: as §1

[2] = target: GlcNAc(b1-3)Gal(b1-4)GlcNAc(b1-2)Man(a1-3)[GlcNAc(b1-3)Gal(b1-4)GlcNAc(b1-2)Man(a1-6)]Man(b1-4)GlcNAc(b1-4)GlcNAc
Outline: as §1

[3] = target: GlcNAc(b1-3)Gal(b1-4)GlcNAc(b1-2)Man(a1-3)[GlcNAc(b1-3)Gal(b1-4)GlcNAc(b1-2)Man(a1-6)]Man(b1-4)GlcNAc(b1-4)[Fuc(a1-6)]GlcNAc
Outline: as §1

[4] = target: GlcNAc(b1-3)Gal(b1-4)GlcNAc(b1-2)[GlcNAc(b1-3)Gal(b1-4)GlcNAc(b1-6)]Man(a1-6)[GlcNAc(b1-3)Gal(b1-4)GlcNAc(b1-2)Man(a1-3)]Man(b1-4)GlcNAc(b1-4)GlcNAc
Outline: as §1

[5] = target: GlcNAc(b1-3)Gal(b1-4)GlcNAc(b1-3)Gal(b1-4)GlcNAc
Outline: as §1

[6] = target: GlcNAc(b1-3)Gal(b1-4)GlcNAc(b1-3)Gal(b1-4)GlcNAc(b1-2)Man(a1-3)[GlcNAc(b1-3)Gal(b1-4)GlcNAc(b1-3)Gal(b1-4)GlcNAc(b1-2)Man(a1-6)]Man(b1-4)GlcNAc(b1-4)GlcNAc
Outline: as §1

[7] = target: GlcNAc(b1-3)Gal(b1-4)GlcNAc(b1-3)Gal(b1-4)GlcNAc(b1-2)Man(a1-3)[GlcNAc(b1-3)Gal(b1-4)GlcNAc(b1-3)Gal(b1-4)GlcNAc(b1-2)Man(a1-6)]Man(b1-4)GlcNAc(b1-4)[Fuc(a1-6)]GlcNAc
Outline: as §1

[8] = target: GlcNAc(b1-3)Gal(b1-4)GlcNAc(b1-3)Gal(b1-4)GlcNAc(b1-2)[GlcNAc(b1-3)Gal(b1-4)GlcNAc(b1-3)Gal(b1-4)GlcNAc(b1-6)]Man(a1-6)[GlcNAc(b1-3)Gal(b1-4)GlcNAc(b1-3)Gal(b1-4)GlcNAc(b1-2)Man(a1-3)]Man(b1-4)GlcNAc(b1-4)[Fuc(a1-6)]GlcNAc
Outline: as §1

[9] = target: GlcNAc(b1-3)Gal(b1-4)GlcNAc(b1-3)Gal(b1-4)GlcNAc(b1-3)Gal(b1-4)GlcNAc(b1-2)Man(a1-3)[GlcNAc(b1-3)Gal(b1-4)GlcNAc(b1-3)Gal(b1-4)GlcNAc(b1-3)Gal(b1-4)GlcNAc(b1-2)Man(a1-6)]Man(b1-4)GlcNAc(b1-4)GlcNAc
Outline: as §1

[10] = target: GlcNAc(b1-3)Gal(b1-4)GlcNAc(b1-3)Gal(b1-4)GlcNAc(b1-3)Gal(b1-4)GlcNAc(b1-2)Man(a1-3)[GlcNAc(b1-3)Gal(b1-4)GlcNAc(b1-3)Gal(b1-4)GlcNAc(b1-3)Gal(b1-4)GlcNAc(b1-2)Man(a1-6)]Man(b1-4)GlcNAc(b1-4)[Fuc(a1-6)]GlcNAc
Outline: as §1

[11] = target: GlcNAc(b1-3)Gal(b1-4)GlcNAc(b1-3)Gal(b1-4)GlcNAc(b1-3)Gal(b1-4)GlcNAc(b1-2)[GlcNAc(b1-3)Gal(b1-4)GlcNAc(b1-3)Gal(b1-4)GlcNAc(b1-3)Gal(b1-4)GlcNAc(b1-6)]Man(a1-6)[GlcNAc(b1-3)Gal(b1-4)GlcNAc(b1-3)Gal(b1-4)GlcNAc(b1-3)Gal(b1-4)GlcNAc(b1-2)Man(a1-3)]Man(b1-4)GlcNAc(b1-4)[Fuc(a1-6)]GlcNAc
Outline: as §1

[12] = target: GlcNAc(b1-3)Gal(b1-4)GlcNAc(b1-3)Gal(b1-4)GlcNAc(b1-3)Gal(b1-4)GlcNAc(b1-3)Gal(b1-4)GlcNAc(b1-2)Man(a1-3)[GlcNAc(b1-3)Gal(b1-4)GlcNAc(b1-3)Gal(b1-4)GlcNAc(b1-3)Gal(b1-4)GlcNAc(b1-3)Gal(b1-4)GlcNAc(b1-2)Man(a1-6)]Man(b1-4)GlcNAc(b1-4)GlcNAc
Outline: as §1

[13] = target: GlcNAc(b1-3)Gal(b1-4)GlcNAc(b1-3)Gal(b1-4)GlcNAc(b1-3)Gal(b1-4)GlcNAc(b1-3)Gal(b1-4)GlcNAc(b1-2)Man(a1-3)[GlcNAc(b1-3)Gal(b1-4)GlcNAc(b1-3)Gal(b1-4)GlcNAc(b1-3)Gal(b1-4)GlcNAc(b1-3)Gal(b1-4)GlcNAc(b1-2)Man(a1-6)]Man(b1-4)GlcNAc(b1-4)[Fuc(a1-6)]GlcNAc
Outline: as §1

[14] = target: GlcNAc(b1-3)Gal(b1-4)GlcNAc(b1-3)Gal(b1-4)GlcNAc(b1-3)Gal(b1-4)GlcNAc(b1-3)Gal(b1-4)GlcNAc(b1-2)[GlcNAc(b1-3)Gal(b1-4)GlcNAc(b1-3)Gal(b1-4)GlcNAc(b1-3)Gal(b1-4)GlcNAc(b1-3)Gal(b1-4)GlcNAc(b1-6)]Man(a1-6)[GlcNAc(b1-3)Gal(b1-4)GlcNAc(b1-3)Gal(b1-4)GlcNAc(b1-3)Gal(b1-4)GlcNAc(b1-3)Gal(b1-4)GlcNAc(b1-2)Man(a1-3)]Man(b1-4)GlcNAc(b1-4)[Fuc(a1-6)]GlcNAc
Outline: as §1

[15] = target: GlcNAc(b1-3)Gal(b1-4)GlcNAc(b1-3)Gal(b1-4)GlcNAc(b1-3)GalNAc
Outline: as §1

[16] = target: GlcNAc(b1-3)Gal(b1-4)GlcNAc(b1-3)GalNAc
Outline: as §1

[17] = target: GlcNAc(b1-3)Gal(b1-4)GlcNAc(b1-3)[GlcNAc(b1-3)Gal(b1-4)GlcNAc(b1-3)]GalNAc
Outline: as §1

[18] = target: GlcNAc(b1-3)Gal(b1-4)GlcNAc(b1-6)[Gal(b1-3)]GalNAc
Outline: as §1

[19] = target: GlcNAc(b1-3)Gal(b1-4)GlcNAc(b1-6)[GlcNAc(b1-3)Gal(b1-3)]GalNAc
Outline: as §1

[20] = target: GlcNAc(b1-3)Gal(b1-4)GlcNAc(b1-6)[GlcNAc(b1-3)]Gal(b1-4)GlcNAc
Outline: as §1

GlcNAc(b1-3)GalNAc = target: GlcNAc(b1-3)GalNAc
Outline: as §1

GlcNAc(b1-3)Man = target: GlcNAc(b1-3)Man
Outline: as §1

[21] = target: GlcNAc(b1-3)[GlcNAc(b1-4)][GlcNAc(b1-6)]GlcNAc
Outline: as §1

[22] = target: GlcNAc(b1-3)[GlcNAc(b1-6)]Gal(b1-4)GlcNAc
Outline: as §1

[23] = target: GlcNAc(b1-3)[GlcNAc(b1-6)]GalNAc
Outline: as §1

[24] = target: GlcNAc(b1-4)Gal(b1-4)GlcNAc
Outline: as §1

GlcNAc(b1-4)GlcNAc = target: GlcNAc(b1-4)GlcNAc
Outline: as §1

[25] = target: GlcNAc(b1-4)GlcNAc(b1-4)GlcNAc
Outline: as §1

[26] = target: GlcNAc(b1-4)GlcNAc(b1-4)GlcNAc(b1-4)GlcNAc(b1-4)GlcNAc
Outline: as §1

[27] = target: GlcNAc(b1-4)GlcNAc(b1-4)GlcNAc(b1-4)GlcNAc(b1-4)GlcNAc(b1-4)GlcNAc
Outline: as §1

[28] = target: GlcNAc(b1-4)[GlcNAc(b1-6)]GalNAc
Outline: as §1

[29] = target: GlcNAc(b1-6)Gal(b1-4)GlcNAc
Outline: as §1

GlcNAc(b1-6)GalNAc = target: GlcNAc(b1-6)GalNAc
Outline: as §1

[30] = target: GlcNAc6S(b1-3)Gal(b1-4)GlcNAc
Outline: as §1

Kdn(a2-3)Gal(b1-3)GalNAc = target: Kdn(a2-3)Gal(b1-3)GalNAc
Outline: as §1

Kdn(a2-3)Gal(b1-3)GlcNAc = target: Kdn(a2-3)Gal(b1-3)GlcNAc
Outline: as §1

B1: truncCC1G-10077 (Coprinopsis cinerea) (protein)
chain: MHHHHHHHHPLPSPGPGWVLIQNGGTGKFLCSTPSGDIGTADGPETVYDYSVQWRFIQREYTGVYHVVNRATGAYLRQIGTSMPSIGLAEENDDELKDWWMLETYDNSEIGLASIISRWTGNVLDHYGGVSVQALDNNTENSYRSWAIIPARDWLTSFSLVNGQGGLCLAAQYAREETRLSTTANVNDFHAQWVFRKPSGSSGYTIQNKYNNHYVGGTSARWELVVCCNKYFGIRNTSTQKYLAIEDGQVTFQDQDMTDRKQCWELCSGRATDTSGNDYDLIYMDDDLLEVMIPWVGDKQGDLKHYIEKRATKKPPKDKGGWQLPAAGLIKKPKFNDIRQLLQELIEQWEWDVVNEEREQIQTLVSIDEAEARRLLGRRPHPDIVAAYQRSRSSTLFRIDRQGYFNIAGDRYVNIQGQYGDDSYFHIALPVGVRFGREQIRRFLRDSLDRSTSVTITPTTCKPPSGGPDYNRDPDSDGDNSWIKWTIAVVGTSAIKHSEL
GlcNAc(b1-3)Gal(b1-4)Glc
  glycan array binding signal (z-score): -0.274
[1]
  glycan array binding signal (z-score): -0.127
[2]
  glycan array binding signal (z-score): 0.166
[3]
  glycan array binding signal (z-score): 2.45
[4]
  glycan array binding signal (z-score): 0.207
[5]
  glycan array binding signal (z-score): -0.104
[6]
  glycan array binding signal (z-score): 1.17
[7]
  glycan array binding signal (z-score): 2.08
[8]
  glycan array binding signal (z-score): -0.021
[9]
  glycan array binding signal (z-score): -0.258
[10]
  glycan array binding signal (z-score): 1.05
[11]
  glycan array binding signal (z-score): 0.218
[12]
  glycan array binding signal (z-score): 1.96
[13]
  glycan array binding signal (z-score): 0.189
[14]
  glycan array binding signal (z-score): 0.672
[15]
  glycan array binding signal (z-score): -0.234
[16]
  glycan array binding signal (z-score): -0.488
[17]
  glycan array binding signal (z-score): -0.957
[18]
  glycan array binding signal (z-score): -0.169
[19]
  glycan array binding signal (z-score): -0.74
[20]
  glycan array binding signal (z-score): -0.807
GlcNAc(b1-3)GalNAc
  glycan array binding signal (z-score): -0.729
GlcNAc(b1-3)Man
  glycan array binding signal (z-score): -0.247
[21]
  glycan array binding signal (z-score): -0.693
[22]
  glycan array binding signal (z-score): -0.587
[23]
  glycan array binding signal (z-score): -0.893
[24]
  glycan array binding signal (z-score): -0.615
GlcNAc(b1-4)GlcNAc
  glycan array binding signal (z-score): -0.418
[25]
  glycan array binding signal (z-score): -0.557
[26]
  glycan array binding signal (z-score): -0.873
[27]
  glycan array binding signal (z-score): -0.144
[28]
  glycan array binding signal (z-score): -0.863
[29]
  glycan array binding signal (z-score): -0.27
GlcNAc(b1-6)GalNAc
  glycan array binding signal (z-score): -0.685
[30]
  glycan array binding signal (z-score): 0.038
Kdn(a2-3)Gal(b1-3)GalNAc
  glycan array binding signal (z-score): 1.66
Kdn(a2-3)Gal(b1-3)GlcNAc
  glycan array binding signal (z-score): -0.052
